Reference: patent US20100316616A1
Results are given in words; binding and its absence hold for the method and conditions named. Binding seen in cells or lysates may run through a third protein. Some binding calls cover weakened binding; strength is not graded here.

Protein sequences, listed by entry. Tags and fused reporters are not part of them. Residues count along the entry.
UniProt P27467, residues 19-352: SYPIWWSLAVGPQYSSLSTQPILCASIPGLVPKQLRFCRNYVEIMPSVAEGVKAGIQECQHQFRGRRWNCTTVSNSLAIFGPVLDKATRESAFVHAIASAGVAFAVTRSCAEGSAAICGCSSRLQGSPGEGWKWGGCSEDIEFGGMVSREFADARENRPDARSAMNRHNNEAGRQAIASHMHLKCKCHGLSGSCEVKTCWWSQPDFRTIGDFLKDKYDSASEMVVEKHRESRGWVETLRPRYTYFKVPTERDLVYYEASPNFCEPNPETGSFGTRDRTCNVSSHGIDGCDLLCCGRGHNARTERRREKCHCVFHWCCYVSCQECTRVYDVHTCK

Experiments:
[1] = target: His-tagged mouse Wnt3a (mouse) (UniProt P27467); experiment: competition co-immunoprecipitation; competitor of V3Nter for Wnt3a
[2] = target: His-tagged mouse Wnt3a (mouse) (UniProt P27467); experiment: competition co-immunoprecipitation at 0, 50 or 100 ug/ml RH3; competitor of V3Nter for Wnt3a

- binding [1]: binds
- binding [2]: binds
Binder: AWGRFLHTNCHPFLA [synthetic peptide RH3]
